For at least one compound, name, drawing or mass did not settle the structure.
Tested on: stratum corneum (SC)
Assay: Stratum corneum (SC) tape stripping, keratolytic efficacy
Format: in vivo
Conditions: after prolonged application
Description: Keratolytic efficacy of an agent is optionally assessed by examining stratum corneum (SC) tape strippings to measure the total SC protein amount removed and on the tape. The amount of skin mass on the tape is directly proportional to the amount of keratolysis. Salicylic acid is a keratolytic, while retinoic acid is known mostly for its comedolytic properties, and benzoyl peroxide is known mostly for its anti-microbial mechanism. Here, all three were examined for relative keratolytic efficacy.

For `CC1=C(/C=C/C(C)=C/C=C/C(C)=C/C(=O)O)C(C)(C)CCC1` [retinoic acid], the keratolytic properties was “comparable to benzoyl peroxide”.

From patent publication US20260108533A1, “COMPOSITIONS AND METHODS FOR THE TREATMENT OF MEIBOMIAN GLAND DYSFUNCTION” (Azura Ophthalmics Ltd., priority 2019, published 2026)
